Laboratory results: PubChem BioAssay AID1259308 (NCATS, 2017)
Test: 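Knock-downs that increase output of a recombinant reporter protein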 (primary screen). System: human HEK293 embryonic kidney cells stably expressing firefly luciferase (HEK-CMV-Luc2-Hygro). Knock-down reagent: single siRNA against human genes, 0.8 pmol siRNA per well. Timing: 72 h. Detection: 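Luciferase light (ONE-Glo) measured on one replicate plate set and viability (CellTiter-Glo) on the other, scaled to a negative control siRNA, with robust z-scores and luciferase per cell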. Direction: total luciferase, z-score: higher = more reporter protein produced. Hit rule: 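An siRNA counts as active if its total luciferase robust z-score exceeds 3; genes with two or more such siRNAs out of three were retested with fresh siRNAs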. Calls: active = raised luciferase; inactive = no rise.
Here is a random part of about 59,000 reagents. In the full data, about 1,510 (2.6%) were called active. 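Calls use total luciferase alone and ignore viability, so some active siRNAs may act by altering cell number.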 Reagents against one gene are numbered here. Not all columns of the deposit are shown. Reagent sequences are not shown.

total luciferase, z-score, by gene symbol and reagent
TLE6: #1 0.394 inactive; #2 -0.851 inactive; #3 -1.93 inactive
GNPTAB: #1 -0.225 inactive; #2 0.596 inactive; #3 -0.501 inactive
UFC1: #1 -0.752 inactive; #2 -0.255 inactive; #3 2.94 inactive
ZNF625: #1 0.422 inactive; #2 -0.797 inactive; #3 0.731 inactive
JAKMIP1: #1 1.58 inactive; #2 -0.559 inactive; #3 0.352 inactive
PDE1B: #1 0.0413 inactive; #2 -2.29 inactive; #3 -0.245 inactive
GPR119: #1 0.313 inactive; #2 -0.762 inactive; #3 0.643 inactive
MRPL22: #1 -0.0574 inactive; #2 -0.278 inactive; #3 -0.792 inactive
HBS1L: #1 -0.358 inactive; #2 -0.208 inactive; #3 -0.257 inactive
HBZ: #1 1.4 inactive; #2 -0.104 inactive; #3 2.16 inactive
PER3: #1 1.85 inactive; #2 -0.409 inactive; #3 0.161 inactive
STS: #1 0.348 inactive; #2 1.08 inactive; #3 -0.0649 inactive
PNMA6B: #1 -1.19 inactive; #2 -0.115 inactive; #3 -0.638 inactive

6 successive reagents already listed:
total luciferase, z-score, by gene symbol and reagent
ZNF625: #1 0.422 inactive; #2 -0.797 inactive; #3 0.731 inactive
JAKMIP1: #1 1.58 inactive; #2 -0.559 inactive; #3 0.352 inactive
